Measured values as given in article PMC1959517.
No constants are given. Whether binding was seen depends on the method and setting. Some results given as binding are weak or reduced against the parent protein; the word gives no strength. For some assays here: Tags and fused reporters may be left off the sequences shown.

The chains behind the UniProt entries cited, without tags or fusion partners. Where a name states a change or a piece, a line headed by the entry shows the natural chain unless it says otherwise.
UniProt P0AFC3: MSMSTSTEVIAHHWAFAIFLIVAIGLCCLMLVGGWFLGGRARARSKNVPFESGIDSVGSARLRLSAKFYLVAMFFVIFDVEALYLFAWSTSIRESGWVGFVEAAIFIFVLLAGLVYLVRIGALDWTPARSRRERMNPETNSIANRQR

T1: His-tagged CyaY (overproduced from pCA24NcyaY) (E. coli), P27838
T1 chain: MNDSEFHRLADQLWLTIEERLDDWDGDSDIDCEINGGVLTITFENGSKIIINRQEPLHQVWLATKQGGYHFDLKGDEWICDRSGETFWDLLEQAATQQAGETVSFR


Columns and labels:
[1] = target: T1, His-tagged CyaY (overproduced from …); assay: SDS-PAGE; His-tagged CyaY purified on His Spin-Trap (Ni-Sepharose), eluted with 1 M imidazole in 20 mM Na3PO4/HCl pH 7.4; bands of apparent 12 and 25 kDa on a Coomassie-stained SDS gel; both purified; conditions: remark: other sources report otherwise
[2] = target: NADH:ubiquinone oxidoreductase (respiratory complex I) of Escherichia coli (E. coli (endogenous in BW25113)) (UniProt P0AFC3); assay: co-purification (anion exchange and size-exclusion chromatography) read by SDS-PAGE; complex I isolated from DDM extract of cytoplasmic membranes of the parental strain BW25113 (Fractogel EMD, Source 15Q, Sephacryl S-300 HR; 50 mM MES/NaOH, 50 mM NaCl, 0.1% DDM, pH 6.0, 4°C); 100 μg of the preparation on a Coomassie-stained SDS gel, looked at for a 12 kDa band

Row | binding [1] | Binder | binding [2]
1 | binds | His-tagged CyaY (overproduced from pCA24NcyaY), P27838 1-106 (protein) MNDSEFHRLADQLWLTIEERLDDWDGDSDIDCEINGGVLTITFENGSKIIINRQEPLHQVWLATKQGGYHFDLKGDEWICDRSGETFWDLLEQAATQQAGETVSFR | 
2 |  | CyaY, the Escherichia coli frataxin homologue (protein, UniProt P27838 1-106) MNDSEFHRLADQLWLTIEERLDDWDGDSDIDCEINGGVLTITFENGSKIIINRQEPLHQVWLATKQGGYHFDLKGDEWICDRSGETFWDLLEQAATQQAGETVSFR | no binding
